Results deposited as PubChem BioAssay AID1259405 (NCATS, 2018).
The whole screen tested about 50,000 reagents; below is an unselected part. About 4,000 of them (8%) count as active. 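Mouse siRNA library applied to hamster cells; one well for each siRNA.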 Reagents against one gene are numbered here.

Purpose: 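Mouse-designed siRNAs used to find CHO productivity engineering targets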 (primary screen)
System: Chinese hamster CHO-K1 ovary cells with stable secreted eGFP expression
Reagent: single siRNA against mouse genes, 0.8 pmol siRNA per well (2 µl of 400 nM stock)
Duration: 3 days
Read-out: 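Percent of the per-plate non-targeting control median for intracellular GFP per well by laser scanning cytometry and for cell viability by ATP luminescence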
Scale: GFP, % of control: higher = more GFP per well, higher productivity; viability (ATP), % of control: higher = more viable cells (more ATP)
Rule for the call: 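a knock-down is called active if GFP reaches 120% or more of non-targeting control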

gene | reagent no. | GFP, % of control | viability (ATP), % of control | outcome
Tns2 | 1 | 65.7 | 79.8 | inactive
Tns2 | 2 | 57 | 67.4 | inactive
Tns2 | 3 | 92 | 71.9 | inactive
Sp8 | 1 | 77.4 | 84.4 | inactive
Sp8 | 2 | 65.2 | 90.5 | inactive
Sp8 | 3 | 92.7 | 96.5 | inactive
Spn | 1 | 81.6 | 88.6 | inactive
Spn | 2 | 84.3 | 103 | inactive
Spn | 3 | 120 | 150 | active
Ugt1a5 | 1 | 52.9 | 45.7 | inactive
Ugt1a5 | 2 | 49.2 | 77.1 | inactive
Ugt1a5 | 3 | 47.6 | 61.2 | inactive
Pxn | 1 | 110 | 92 | inactive
Pxn | 2 | 72.7 | 87.8 | inactive
Pxn | 3 | 90.3 | 73.6 | inactive
Tcaf3 | 1 | 89 | 82.7 | inactive
Tcaf3 | 2 | 98.8 | 90.8 | inactive
Tcaf3 | 3 | 79.3 | 68.9 | inactive
Acp1 | 1 | 98.3 | 87.4 | inactive
Acp1 | 2 | 78.6 | 69.1 | inactive
Acp1 | 3 | 87.1 | 55.9 | inactive
Or2w3b | 1 | 92.4 | 56.8 | inactive
Or2w3b | 2 | 35.3 | 35.8 | inactive
Or2w3b | 3 | 49.4 | 77.8 | inactive
Fancc | 1 | 56.1 | 72.6 | inactive
Fancc | 2 | 52.8 | 69.9 | inactive
Fancc | 3 | 57.5 | 86.5 | inactive
A830073O21Rik | 1 | 103 | 37.1 | inactive
A830073O21Rik | 2 | 64.2 | 59.5 | inactive
A830073O21Rik | 3 | 90.6 | 67.4 | inactive
Yju2b | 1 | 69.8 | 124 | inactive
Yju2b | 2 | 72.8 | 82.5 | inactive
Yju2b | 3 | 103 | 100 | inactive
Fam162a | 1 | 46.6 | 57.2 | inactive
Fam162a | 2 | 41.2 | 82.7 | inactive
Fam162a | 3 | 65.2 | 78.9 | inactive

Hits, among the entries above:
gene | reagent no. | GFP, % of control | viability (ATP), % of control | outcome
Spn | 3 | 120 | 150 | active
